The nature of data set [1]: general procedure: Fmoc solid-phase peptide synthesis; 2-CTC resin (Iris biotech), Wang resin (Iris biotech) or Rink amide resin (carbolution); HATU/DIPEA (NODA-GA coupling). To be noted: whole synthesis, 220 nm.
Data set [2] in a line: general procedure: Fmoc solid-phase peptide synthesis; Wang resin; HATU/DIPEA (NODA-GA coupling). Conditions: whole synthesis.
A short description of data set [3]: general procedure: Fmoc solid-phase peptide synthesis; 2-CTC resin; HATU/DIPEA (NODA-GA coupling). Conditions: whole synthesis.
The nature of data set [4]: general procedure: Fmoc solid-phase peptide synthesis; Rink amide resin; HATU/DIPEA (NODA-GA coupling). To be noted: whole synthesis.

For some of these results: Plain letter strings leave the end groups untold.

Regarding DRNSQKINPRPL, the “final HPLC purity” value in data set [1] was found to be 99.0%. For the same substance, in data set [2] (scale 34.7 μmol), the isolated mass turned out to be 12.4 mg and the isolated yield is 25%.
Regarding NODA-GA-SNDRPPNILQKR, the “final HPLC purity” value in data set [1] is given as 98.5%. In addition, in data set [2] (scale 48.5 μmol), the isolated mass came out at 19.5 mg and the isolated yield amounted to 22%.
As to NODA-GA-SNDRPPNILQQR, the “final HPLC purity” value in data set [1] was found to be 96.4%. In data set [3] (scale 55.8 μmol), this substance registered an isolated mass of 16.0 mg and an isolated yield of 16%.
With RRPQDLPINQNS, the “final HPLC purity” value in data set [1] worked out at 99.0%. In data set [3] (scale 14.6 μmol), this substance had an isolated mass of 11.3 mg and an isolated yield of 54%.
For SNDRPPNILQKR, the “final HPLC purity” value in data set [1] came to 99.8%. In data set [2] (scale 39.1 μmol), this substance came in with an isolated mass of 10.5 mg and an isolated yield of 19%.
Turning to SNDRPPNILQKRXXXK(NODA-GA)-CONH2, in data set [4] (scale 5.60 μmol), the isolated mass is reported as 2.5 mg and the isolated yield is 19%. For the same substance, the “final HPLC purity” value in data set [1] is listed as 98.6%.
Turning to SNDRPPNILQQR, in data set [1], the “final HPLC purity” value is on record as 99.1%. Further, in data set [3] (scale 26.3 μmol), the isolated mass is recorded as 7.96 mg and the isolated yield was 21%.
Regarding SNDRPPNILQQRXXXK(NODA-GA), in data set [4] (scale 12.4 μmol), the isolated mass worked out at 5.26 mg. This substance registered an isolated yield in data set [4] (scale 12.4 μmol) of 18%. The “final HPLC purity” value in data set [1] (T1 r11) is ≥98.5%; in data set [1] (run 1), 98.4%.
With SulfoCy3-SNDRPPNILQKR, in data set [1], the “final HPLC purity” value was determined as 98.2%. In data set [3] (scale 26.0 μmol), this substance registered an isolated mass of 3.74 mg and an isolated yield of 7%.
As to SulfoCy3-SNDRPPNILQQR, the “final HPLC purity” value in data set [1] is given as 99.8%. Also, in data set [3] (scale 14.1 μmol), the isolated mass was 2.08 mg and the isolated yield came to 7%.
